The target of this experiment is FLAG-tagged full-length Mask protein (Multiple ankyrin repeats single KH domain) (Drosophila) (UniProt Q9VCA8). Put plainly: co-IP.

Sequences of proteins named here, by UniProt entry; tags and fusion partners are left off.
UniProt Q9W321: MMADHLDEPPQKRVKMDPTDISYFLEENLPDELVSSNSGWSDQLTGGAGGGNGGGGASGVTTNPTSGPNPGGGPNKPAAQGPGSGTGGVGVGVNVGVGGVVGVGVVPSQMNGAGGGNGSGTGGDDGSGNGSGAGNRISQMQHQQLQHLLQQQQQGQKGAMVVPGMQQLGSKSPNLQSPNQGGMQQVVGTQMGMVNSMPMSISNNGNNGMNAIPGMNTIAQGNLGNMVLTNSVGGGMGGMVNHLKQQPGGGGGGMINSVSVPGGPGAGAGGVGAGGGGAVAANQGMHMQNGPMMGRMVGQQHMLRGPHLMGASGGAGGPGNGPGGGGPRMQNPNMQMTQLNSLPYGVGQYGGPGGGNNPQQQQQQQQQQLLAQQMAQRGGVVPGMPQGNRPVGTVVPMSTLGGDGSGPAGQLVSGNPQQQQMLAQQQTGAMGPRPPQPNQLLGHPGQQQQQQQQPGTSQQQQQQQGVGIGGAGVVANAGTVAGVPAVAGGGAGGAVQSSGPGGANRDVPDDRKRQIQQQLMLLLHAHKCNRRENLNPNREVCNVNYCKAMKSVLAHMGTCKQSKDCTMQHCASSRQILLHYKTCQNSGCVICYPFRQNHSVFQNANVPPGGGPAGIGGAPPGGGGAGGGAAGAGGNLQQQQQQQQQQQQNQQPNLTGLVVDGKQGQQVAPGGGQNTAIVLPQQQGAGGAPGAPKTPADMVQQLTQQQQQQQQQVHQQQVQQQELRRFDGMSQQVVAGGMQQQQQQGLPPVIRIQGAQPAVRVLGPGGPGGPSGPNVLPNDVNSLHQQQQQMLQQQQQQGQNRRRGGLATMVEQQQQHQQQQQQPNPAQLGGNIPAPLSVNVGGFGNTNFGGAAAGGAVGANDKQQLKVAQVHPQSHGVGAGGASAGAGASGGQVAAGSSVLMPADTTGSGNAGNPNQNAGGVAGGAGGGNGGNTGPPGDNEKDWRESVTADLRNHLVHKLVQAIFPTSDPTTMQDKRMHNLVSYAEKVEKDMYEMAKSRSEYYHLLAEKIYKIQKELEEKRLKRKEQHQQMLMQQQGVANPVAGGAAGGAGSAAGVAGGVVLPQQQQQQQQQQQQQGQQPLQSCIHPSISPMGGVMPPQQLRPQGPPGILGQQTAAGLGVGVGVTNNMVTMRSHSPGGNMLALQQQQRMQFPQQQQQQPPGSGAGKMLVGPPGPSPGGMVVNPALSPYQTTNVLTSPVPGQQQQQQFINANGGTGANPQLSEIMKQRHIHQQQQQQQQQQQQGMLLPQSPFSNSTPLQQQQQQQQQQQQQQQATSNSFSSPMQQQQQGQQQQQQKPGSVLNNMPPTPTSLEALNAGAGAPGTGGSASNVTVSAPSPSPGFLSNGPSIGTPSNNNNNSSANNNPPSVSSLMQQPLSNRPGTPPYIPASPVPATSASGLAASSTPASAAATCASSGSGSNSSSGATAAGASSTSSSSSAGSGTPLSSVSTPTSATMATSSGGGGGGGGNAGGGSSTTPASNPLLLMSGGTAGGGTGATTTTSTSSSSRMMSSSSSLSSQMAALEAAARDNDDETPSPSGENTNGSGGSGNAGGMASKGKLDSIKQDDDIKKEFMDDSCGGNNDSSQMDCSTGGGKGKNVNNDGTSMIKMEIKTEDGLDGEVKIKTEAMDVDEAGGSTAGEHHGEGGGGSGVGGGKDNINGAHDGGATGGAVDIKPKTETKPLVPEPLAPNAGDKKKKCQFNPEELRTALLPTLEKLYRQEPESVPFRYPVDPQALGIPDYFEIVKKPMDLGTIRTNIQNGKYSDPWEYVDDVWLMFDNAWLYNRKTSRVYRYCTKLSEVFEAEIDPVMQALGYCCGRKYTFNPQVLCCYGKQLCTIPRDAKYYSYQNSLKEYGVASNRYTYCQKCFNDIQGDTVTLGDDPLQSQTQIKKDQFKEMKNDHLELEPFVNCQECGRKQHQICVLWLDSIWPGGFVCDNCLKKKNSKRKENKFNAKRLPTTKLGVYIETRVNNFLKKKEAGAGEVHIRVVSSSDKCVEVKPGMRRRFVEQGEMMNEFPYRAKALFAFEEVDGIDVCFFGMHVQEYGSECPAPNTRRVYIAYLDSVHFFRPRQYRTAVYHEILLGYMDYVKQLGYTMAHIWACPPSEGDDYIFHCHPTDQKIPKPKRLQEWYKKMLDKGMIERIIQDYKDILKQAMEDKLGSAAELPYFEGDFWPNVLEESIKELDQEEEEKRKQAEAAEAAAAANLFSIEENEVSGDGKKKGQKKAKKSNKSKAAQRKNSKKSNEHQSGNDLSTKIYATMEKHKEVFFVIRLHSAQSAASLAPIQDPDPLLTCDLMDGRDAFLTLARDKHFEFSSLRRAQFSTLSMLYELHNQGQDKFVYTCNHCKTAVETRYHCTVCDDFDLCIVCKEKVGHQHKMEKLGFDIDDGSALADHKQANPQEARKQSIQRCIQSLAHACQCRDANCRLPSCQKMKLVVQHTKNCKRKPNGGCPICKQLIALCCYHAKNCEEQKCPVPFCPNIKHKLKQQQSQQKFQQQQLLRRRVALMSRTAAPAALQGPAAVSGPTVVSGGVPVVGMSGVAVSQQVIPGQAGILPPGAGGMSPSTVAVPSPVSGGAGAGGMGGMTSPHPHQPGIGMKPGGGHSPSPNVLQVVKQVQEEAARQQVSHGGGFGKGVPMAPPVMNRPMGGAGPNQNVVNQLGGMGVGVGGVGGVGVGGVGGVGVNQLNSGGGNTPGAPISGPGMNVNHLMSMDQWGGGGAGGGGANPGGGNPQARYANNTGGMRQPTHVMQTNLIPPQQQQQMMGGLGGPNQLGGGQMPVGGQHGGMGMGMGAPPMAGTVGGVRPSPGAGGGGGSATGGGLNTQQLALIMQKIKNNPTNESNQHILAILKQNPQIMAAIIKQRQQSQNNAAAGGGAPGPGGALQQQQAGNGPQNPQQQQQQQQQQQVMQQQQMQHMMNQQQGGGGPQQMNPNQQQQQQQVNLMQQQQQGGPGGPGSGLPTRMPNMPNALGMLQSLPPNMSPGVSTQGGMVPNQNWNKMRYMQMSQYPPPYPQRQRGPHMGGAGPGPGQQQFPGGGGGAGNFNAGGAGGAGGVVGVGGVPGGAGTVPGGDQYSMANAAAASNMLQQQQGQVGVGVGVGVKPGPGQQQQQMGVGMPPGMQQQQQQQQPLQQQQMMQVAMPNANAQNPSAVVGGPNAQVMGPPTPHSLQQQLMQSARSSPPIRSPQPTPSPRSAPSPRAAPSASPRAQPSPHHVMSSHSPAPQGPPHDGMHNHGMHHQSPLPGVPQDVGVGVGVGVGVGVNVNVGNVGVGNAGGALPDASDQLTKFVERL

These are yes or no findings as the source states them, for the method shown. In cells and extracts the contact can be indirect. Some entries that bind do so weakly or less than the wild type.

Consider “CREB binding protein (CBP) (from UniProt Q9W321 1-3276)”, for which the binding result is “binds”.
